Source: the supplement of paper PMC10849652
This is one part of the list.

By UniProt entry, the sequences of proteins in these tests, tags left out. Where a name states a change or a piece, a line headed by the entry shows the natural chain unless it says otherwise.
UniProt Q92925, whole entry, looked up: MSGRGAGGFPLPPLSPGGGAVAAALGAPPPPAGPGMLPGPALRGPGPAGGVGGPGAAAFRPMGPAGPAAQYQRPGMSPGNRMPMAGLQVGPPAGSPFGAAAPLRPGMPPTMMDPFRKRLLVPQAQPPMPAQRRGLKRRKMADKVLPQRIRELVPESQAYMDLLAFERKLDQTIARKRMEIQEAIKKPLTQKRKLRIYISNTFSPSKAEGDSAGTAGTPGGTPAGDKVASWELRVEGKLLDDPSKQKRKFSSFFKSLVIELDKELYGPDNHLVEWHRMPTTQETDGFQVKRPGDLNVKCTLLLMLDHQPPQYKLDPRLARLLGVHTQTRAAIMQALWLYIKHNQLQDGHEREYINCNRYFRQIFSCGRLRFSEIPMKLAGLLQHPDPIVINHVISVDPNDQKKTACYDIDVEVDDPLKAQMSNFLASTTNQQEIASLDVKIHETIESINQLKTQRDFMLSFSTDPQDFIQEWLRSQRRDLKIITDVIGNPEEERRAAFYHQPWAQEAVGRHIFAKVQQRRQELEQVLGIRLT
UniProt O95721: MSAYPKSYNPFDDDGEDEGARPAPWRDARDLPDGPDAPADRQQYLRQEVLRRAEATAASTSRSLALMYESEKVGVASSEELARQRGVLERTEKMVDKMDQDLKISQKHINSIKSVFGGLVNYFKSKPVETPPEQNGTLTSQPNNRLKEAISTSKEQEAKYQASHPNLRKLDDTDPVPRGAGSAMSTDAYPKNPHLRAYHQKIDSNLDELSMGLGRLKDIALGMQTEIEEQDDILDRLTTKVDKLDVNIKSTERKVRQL
UniProt Q9Y5X3: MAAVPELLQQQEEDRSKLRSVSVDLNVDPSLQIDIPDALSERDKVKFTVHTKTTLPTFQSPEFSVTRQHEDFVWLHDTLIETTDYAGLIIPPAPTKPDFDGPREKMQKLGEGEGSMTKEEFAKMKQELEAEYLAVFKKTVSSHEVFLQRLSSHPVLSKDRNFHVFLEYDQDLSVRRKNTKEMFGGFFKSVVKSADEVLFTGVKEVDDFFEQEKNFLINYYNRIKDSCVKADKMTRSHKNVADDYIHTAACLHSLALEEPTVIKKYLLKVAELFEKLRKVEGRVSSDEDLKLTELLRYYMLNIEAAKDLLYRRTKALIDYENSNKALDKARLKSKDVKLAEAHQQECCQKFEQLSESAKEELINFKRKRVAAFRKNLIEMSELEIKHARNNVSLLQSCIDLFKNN
UniProt Q96DI7: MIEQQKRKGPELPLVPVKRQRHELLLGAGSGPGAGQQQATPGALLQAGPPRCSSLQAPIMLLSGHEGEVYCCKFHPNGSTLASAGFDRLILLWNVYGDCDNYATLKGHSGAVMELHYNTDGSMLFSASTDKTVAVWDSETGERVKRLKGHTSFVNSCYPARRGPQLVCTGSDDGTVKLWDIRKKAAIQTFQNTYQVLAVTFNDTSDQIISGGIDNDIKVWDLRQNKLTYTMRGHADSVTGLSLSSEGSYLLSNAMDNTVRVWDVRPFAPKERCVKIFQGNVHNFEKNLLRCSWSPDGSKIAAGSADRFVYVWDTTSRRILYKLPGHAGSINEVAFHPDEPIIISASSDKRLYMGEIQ
UniProt Q92540: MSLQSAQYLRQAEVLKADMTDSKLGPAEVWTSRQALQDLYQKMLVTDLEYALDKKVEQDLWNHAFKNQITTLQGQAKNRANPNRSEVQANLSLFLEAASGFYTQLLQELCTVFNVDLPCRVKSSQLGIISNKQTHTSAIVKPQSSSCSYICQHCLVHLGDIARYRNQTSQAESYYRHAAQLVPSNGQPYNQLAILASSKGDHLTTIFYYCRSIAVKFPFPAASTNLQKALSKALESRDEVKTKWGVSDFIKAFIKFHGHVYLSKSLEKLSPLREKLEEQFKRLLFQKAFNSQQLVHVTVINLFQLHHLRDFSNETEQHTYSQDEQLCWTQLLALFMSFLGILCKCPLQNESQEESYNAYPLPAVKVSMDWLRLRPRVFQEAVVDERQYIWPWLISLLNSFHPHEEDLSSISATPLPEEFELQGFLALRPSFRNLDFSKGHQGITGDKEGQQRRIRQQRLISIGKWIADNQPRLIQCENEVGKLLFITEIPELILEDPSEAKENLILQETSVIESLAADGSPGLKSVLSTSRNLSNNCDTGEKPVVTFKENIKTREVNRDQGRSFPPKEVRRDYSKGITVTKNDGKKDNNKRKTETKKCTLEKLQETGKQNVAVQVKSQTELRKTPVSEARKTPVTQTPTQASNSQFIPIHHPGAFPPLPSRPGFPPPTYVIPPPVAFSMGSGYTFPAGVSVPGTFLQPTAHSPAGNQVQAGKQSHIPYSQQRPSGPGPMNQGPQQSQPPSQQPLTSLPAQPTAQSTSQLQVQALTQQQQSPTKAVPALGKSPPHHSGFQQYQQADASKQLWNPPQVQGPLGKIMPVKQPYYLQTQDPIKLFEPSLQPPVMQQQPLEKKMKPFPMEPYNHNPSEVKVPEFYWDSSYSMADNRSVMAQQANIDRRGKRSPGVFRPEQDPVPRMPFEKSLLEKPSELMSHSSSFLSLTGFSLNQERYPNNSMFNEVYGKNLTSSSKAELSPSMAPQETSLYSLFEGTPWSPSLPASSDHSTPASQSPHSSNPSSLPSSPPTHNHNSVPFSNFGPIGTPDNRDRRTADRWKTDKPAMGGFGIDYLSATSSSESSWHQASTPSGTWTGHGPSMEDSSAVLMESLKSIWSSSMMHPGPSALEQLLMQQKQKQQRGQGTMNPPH
UniProt O60493, whole entry, looked up: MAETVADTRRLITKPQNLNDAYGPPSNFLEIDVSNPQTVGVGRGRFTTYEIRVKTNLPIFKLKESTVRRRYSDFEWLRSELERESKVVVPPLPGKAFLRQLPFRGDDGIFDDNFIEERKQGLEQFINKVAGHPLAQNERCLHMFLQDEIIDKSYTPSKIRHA
UniProt P57768: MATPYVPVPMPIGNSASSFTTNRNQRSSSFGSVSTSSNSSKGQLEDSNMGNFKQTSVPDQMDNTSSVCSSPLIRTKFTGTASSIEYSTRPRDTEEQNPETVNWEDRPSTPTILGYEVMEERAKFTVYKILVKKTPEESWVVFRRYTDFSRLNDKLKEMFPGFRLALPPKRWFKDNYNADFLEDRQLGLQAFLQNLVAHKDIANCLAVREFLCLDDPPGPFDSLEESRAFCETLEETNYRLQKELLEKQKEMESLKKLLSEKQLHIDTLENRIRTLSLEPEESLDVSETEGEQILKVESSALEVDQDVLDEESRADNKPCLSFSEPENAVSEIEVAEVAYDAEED
UniProt O14508, whole entry, looked up: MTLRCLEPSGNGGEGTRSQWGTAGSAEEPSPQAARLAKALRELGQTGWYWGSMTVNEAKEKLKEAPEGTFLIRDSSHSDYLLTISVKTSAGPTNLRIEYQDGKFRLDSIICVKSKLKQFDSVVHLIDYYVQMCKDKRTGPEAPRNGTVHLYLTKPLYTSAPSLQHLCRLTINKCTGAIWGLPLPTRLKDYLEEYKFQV
UniProt A6NHR9: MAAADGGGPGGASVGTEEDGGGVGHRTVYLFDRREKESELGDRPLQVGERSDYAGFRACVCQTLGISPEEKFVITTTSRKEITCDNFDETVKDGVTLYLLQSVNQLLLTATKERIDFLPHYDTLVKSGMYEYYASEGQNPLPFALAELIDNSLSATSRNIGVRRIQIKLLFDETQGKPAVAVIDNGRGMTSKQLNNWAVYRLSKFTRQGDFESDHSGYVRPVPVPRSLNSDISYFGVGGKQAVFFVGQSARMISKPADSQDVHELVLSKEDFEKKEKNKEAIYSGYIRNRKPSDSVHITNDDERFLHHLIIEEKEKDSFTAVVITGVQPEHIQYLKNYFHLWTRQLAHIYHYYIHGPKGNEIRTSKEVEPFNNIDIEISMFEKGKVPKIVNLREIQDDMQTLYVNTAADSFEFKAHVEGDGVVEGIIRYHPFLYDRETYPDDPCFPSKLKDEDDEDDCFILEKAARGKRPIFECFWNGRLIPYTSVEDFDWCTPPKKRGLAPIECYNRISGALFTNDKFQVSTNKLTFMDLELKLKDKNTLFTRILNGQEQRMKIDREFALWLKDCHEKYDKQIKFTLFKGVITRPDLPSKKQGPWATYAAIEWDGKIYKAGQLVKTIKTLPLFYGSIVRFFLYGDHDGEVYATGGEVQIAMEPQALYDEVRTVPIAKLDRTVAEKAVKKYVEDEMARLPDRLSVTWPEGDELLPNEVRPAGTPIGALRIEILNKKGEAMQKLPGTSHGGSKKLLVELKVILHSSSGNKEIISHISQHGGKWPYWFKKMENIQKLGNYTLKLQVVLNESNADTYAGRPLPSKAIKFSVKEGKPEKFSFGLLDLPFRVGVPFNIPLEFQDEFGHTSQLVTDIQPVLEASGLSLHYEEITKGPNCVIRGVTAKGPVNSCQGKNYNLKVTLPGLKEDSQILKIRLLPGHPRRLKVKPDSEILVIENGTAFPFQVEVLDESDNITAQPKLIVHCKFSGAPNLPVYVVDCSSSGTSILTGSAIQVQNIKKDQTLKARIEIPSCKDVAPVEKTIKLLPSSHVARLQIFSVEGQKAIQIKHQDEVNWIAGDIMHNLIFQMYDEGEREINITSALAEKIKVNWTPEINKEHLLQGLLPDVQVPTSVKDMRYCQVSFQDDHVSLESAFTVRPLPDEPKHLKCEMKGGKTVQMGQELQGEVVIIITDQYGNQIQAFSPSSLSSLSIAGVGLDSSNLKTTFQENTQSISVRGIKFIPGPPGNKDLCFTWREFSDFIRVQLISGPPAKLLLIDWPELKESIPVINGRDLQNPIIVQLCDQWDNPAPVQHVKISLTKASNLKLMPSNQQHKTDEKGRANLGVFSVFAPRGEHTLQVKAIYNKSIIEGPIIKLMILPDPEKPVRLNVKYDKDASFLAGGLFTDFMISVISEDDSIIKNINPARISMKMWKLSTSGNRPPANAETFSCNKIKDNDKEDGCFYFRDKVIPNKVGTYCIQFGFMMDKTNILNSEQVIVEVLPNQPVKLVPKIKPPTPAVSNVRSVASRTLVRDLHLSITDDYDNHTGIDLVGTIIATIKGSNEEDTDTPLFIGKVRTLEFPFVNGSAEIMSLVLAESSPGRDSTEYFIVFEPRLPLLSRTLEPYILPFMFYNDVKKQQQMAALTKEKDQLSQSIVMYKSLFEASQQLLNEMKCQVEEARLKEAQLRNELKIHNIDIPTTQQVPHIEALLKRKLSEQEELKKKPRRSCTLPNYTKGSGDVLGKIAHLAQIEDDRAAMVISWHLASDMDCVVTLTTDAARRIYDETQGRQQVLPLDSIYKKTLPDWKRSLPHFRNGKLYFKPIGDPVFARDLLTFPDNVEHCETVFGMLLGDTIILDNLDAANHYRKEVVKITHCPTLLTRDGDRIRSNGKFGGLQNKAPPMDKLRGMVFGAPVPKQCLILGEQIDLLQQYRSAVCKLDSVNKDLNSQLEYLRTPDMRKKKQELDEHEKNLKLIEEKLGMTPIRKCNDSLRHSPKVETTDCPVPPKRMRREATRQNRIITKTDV
UniProt P55769: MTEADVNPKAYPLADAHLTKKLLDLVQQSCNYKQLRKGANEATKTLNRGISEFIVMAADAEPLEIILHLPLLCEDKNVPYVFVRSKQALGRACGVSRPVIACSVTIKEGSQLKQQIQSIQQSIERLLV
UniProt P08047, whole entry, looked up: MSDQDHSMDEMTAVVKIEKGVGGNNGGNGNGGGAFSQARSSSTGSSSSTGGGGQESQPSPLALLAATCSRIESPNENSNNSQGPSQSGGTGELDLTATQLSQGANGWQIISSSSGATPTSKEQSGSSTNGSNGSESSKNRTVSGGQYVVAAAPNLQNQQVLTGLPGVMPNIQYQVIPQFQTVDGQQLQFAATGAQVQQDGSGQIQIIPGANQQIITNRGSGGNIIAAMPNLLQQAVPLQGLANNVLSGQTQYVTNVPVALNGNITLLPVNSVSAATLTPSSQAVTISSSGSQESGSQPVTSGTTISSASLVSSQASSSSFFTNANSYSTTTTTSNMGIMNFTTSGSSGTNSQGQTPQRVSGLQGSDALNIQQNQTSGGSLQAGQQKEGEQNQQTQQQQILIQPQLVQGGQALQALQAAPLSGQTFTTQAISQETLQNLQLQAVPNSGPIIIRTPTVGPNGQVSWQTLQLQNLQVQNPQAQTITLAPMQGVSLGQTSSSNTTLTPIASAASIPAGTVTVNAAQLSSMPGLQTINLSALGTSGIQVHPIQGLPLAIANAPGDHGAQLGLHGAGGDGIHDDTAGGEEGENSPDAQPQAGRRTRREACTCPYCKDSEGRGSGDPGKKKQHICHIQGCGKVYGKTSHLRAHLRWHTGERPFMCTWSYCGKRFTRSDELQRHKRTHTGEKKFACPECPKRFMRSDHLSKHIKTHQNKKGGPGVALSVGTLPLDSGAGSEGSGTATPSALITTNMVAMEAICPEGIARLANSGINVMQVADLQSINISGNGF

What was measured:
Assay in all cases: log2 fold change, soluble protein after heating vs DMSO (PISA); higher = thermal stabilisation; K562 lysate, 10 uM; active = over 0.2 and 3.5 SD of the protein, either way, in both replicates (recomputed)
vemurafenib = compound: CCCS(=O)(=O)Nc1ccc(F)c(C(=O)c2c[nH]c3ncc(-c4ccc(Cl)cc4)cc23)c1F [vemurafenib]
In short: (§1)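 Dounce homogenisation of K562 pellets in PBS pH 7.4 with 1 mM MgCl2 produced a crude extract, used at 1 mg/mL protein. Exposure to 10 μM compound lasted 30 min, and aliquots were then heated for 3 min across 48°C-58°C, pooled and brought to 0.5% NP-40 at 4°C. The supernatant after 21,000xg for 90 min was quantified by TMTpro 16plex LC-MS/MS with channel sums equalised. Duplicate values are given as log-two fold change in thermal stability relative to solvent controls.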

[1] = compound: CCCS(=O)(=O)Nc1ccc(F)c(C(=O)c2c[nH]c3ncc(Cl)cc23)c1F
In short: as §1

barasertib = compound: CCN(CCCOc1ccc2c(Nc3cc(CC(=O)Nc4cccc(F)c4)[nH]n3)ncnc2c1)CCOP(=O)(O)O [barasertib]
In short: as §1

[2] = compound: CC[C@@H]1C(=O)N(C)c2cnc(Nc3ccc(C(=O)NC4CCN(C)CC4)cc3OC)nc2N1C1CCCC1
In short: as §1

volasertib = compound: CC[C@@H]1C(=O)N(C)c2cnc(Nc3ccc(C(=O)N[C@H]4CC[C@H](N5CCN(CC6CC6)CC5)CC4)cc3OC)nc2N1C(C)C [volasertib]
In short: as §1

[3] = compound: CCn1c(C(=O)N(C2CC2)C2CC2)cc2c3c(ncn3C)c(Nc3cc(C)n(C)n3)nc21
In short: as §1

[4] = compound: CCn1cc(-c2ccnc3[nH]c(-c4cccc(CN(C)C)c4)cc23)c(-c2ccc(NC(=O)N(C)C)cc2)n1
In short: as §1

[5] = compound: CN1CCC(CNc2ccc3ncc(-c4cccc(OC(F)(F)F)c4)n3n2)CC1
In short: as §1

saracatinib = compound: CN1CCN(CCOc2cc(OC3CCOCC3)c3c(Nc4c(Cl)ccc5c4OCO5)ncnc3c2)CC1 [saracatinib]
In short: as §1

sotrastaurin = compound: CN1CCN(c2nc(C3=C(c4c[nH]c5ccccc45)C(=O)NC3=O)c3ccccc3n2)CC1 [sotrastaurin]
In short: as §1

Measured: log2 fold change

SMARCD2 (UniProt Q92925)
inactive: vemurafenib -0.006 | [1] 0.032 | barasertib -0.007 | [2] -0.077 | volasertib -0.03 | [3] 0.038 | [4] -0.107 | [5] 0.028 | saracatinib 0.005 | sotrastaurin 0.024

SNAP29 (UniProt O95721)
inactive: vemurafenib -0.014 | [1] 0 | barasertib -0.015 | [2] 0.041 | volasertib 0.019 | [3] -0.032 | [4] -0.014 | [5] 0.046 | saracatinib -0.015 | sotrastaurin 0.004

SNX5 (UniProt Q9Y5X3)
inactive: vemurafenib 0.054 | [1] 0.001 | barasertib -0.015 | [2] -0.037 | volasertib -0.033 | [3] -0.004 | [4] 0.092 | [5] -0.06 | saracatinib 0.006 | sotrastaurin 0.037

SMC2 (UniProt O95347)
inactive: vemurafenib 0.002 | [1] 0.007 | barasertib -0.001 | [2] -0.033 | volasertib -0.047 | [3] -0.002 | [4] 0.134 | [5] -0.121 | saracatinib 0.005 | sotrastaurin 0.014

SND1 (UniProt Q7KZF4)
inactive: vemurafenib 0.024 | [1] 0.017 | barasertib 0.021 | [2] -0.099 | volasertib -0.084 | [3] 0.037 | [4] 0.058 | [5] -0.078 | saracatinib 0.014 | sotrastaurin 0.031

SNRNP40 (UniProt Q96DI7)
inactive: vemurafenib -0.032 | [1] 0.019 | barasertib -0.06 | [2] -0.001 | volasertib -0.024 | [3] -0.033 | [4] -0.115 | [5] 0.058 | saracatinib 0.01 | sotrastaurin -0.013

SMG7 (UniProt Q92540)
inactive: vemurafenib 0.073 | [1] 0.011 | barasertib 0.098 | [2] 0.071 | volasertib -0.044 | [3] 0.074 | [4] -0.038 | [5] -0.014 | saracatinib 0.045 | sotrastaurin -0.02

SNX3 (UniProt O60493)
inactive: vemurafenib -0.09 | [1] -0.023 | barasertib 0.017 | [2] -0.034 | volasertib -0.054 | [3] 0.071 | [4] 0.003 | [5] 0.016 | saracatinib 0.009 | sotrastaurin 0.006

Two successive entries from above:
SMG7 (UniProt Q92540)
inactive: vemurafenib 0.073 | [1] 0.011 | barasertib 0.098 | [2] 0.071 | volasertib -0.044 | [3] 0.074 | [4] -0.038 | [5] -0.014 | saracatinib 0.045 | sotrastaurin -0.02

SNX3 (UniProt O60493)
inactive: vemurafenib -0.09 | [1] -0.023 | barasertib 0.017 | [2] -0.034 | volasertib -0.054 | [3] 0.071 | [4] 0.003 | [5] 0.016 | saracatinib 0.009 | sotrastaurin 0.006

Remaining list, next part.

SNX16 (UniProt P57768)
inactive: vemurafenib -0.119 | [1] 0.041 | barasertib 0.027 | [2] 0.071 | volasertib -0.033 | [3] -0.033 | [4] -0.051 | [5] 0.102 | saracatinib 0.051 | sotrastaurin -0.018

SOCS2 (UniProt O14508)
inactive: vemurafenib 0.005 | [1] -0.011 | barasertib 0 | [2] 0.031 | volasertib 0.021 | [3] -0.03 | [4] -0.032 | [5] 0.044 | saracatinib -0.022 | sotrastaurin 0.011

SMCHD1 (UniProt A6NHR9)
inactive: vemurafenib 0.036 | [1] 0.012 | barasertib -0.01 | [2] -0.052 | volasertib -0.018 | [3] 0.037 | [4] -0.15 | [5] 0.031 | saracatinib 0.006 | sotrastaurin 0.055

SMC6 (UniProt Q96SB8)
inactive: vemurafenib 0.044 | [1] 0.01 | barasertib 0.014 | [2] 0.047 | volasertib -0.031 | [3] 0.012 | [4] -0.036 | [5] 0.024 | saracatinib 0.046 | sotrastaurin 0.027

SNU13 (UniProt P55769)
inactive: vemurafenib 0.047 | [1] 0.036 | barasertib 0.007 | [2] 0.024 | volasertib -0.006 | [3] -0.028 | [4] -0.076 | [5] -0.03 | saracatinib -0.01 | sotrastaurin -0.055

SMC3 (UniProt Q9UQE7)
inactive: vemurafenib -0.018 | [1] 0.004 | barasertib -0.004 | [2] 0.008 | volasertib -0.013 | [3] 0.003 | [4] 0.041 | [5] -0.018 | saracatinib -0.011 | sotrastaurin -0.016

SP1 (UniProt P08047)
inactive: vemurafenib -0.115 | [1] 0.056 | barasertib 0.045 | [2] 0.015 | volasertib 0.043 | [3] -0.008 | [4] -0.061 | [5] 0.019 | saracatinib 0.037 | sotrastaurin -0.154
